Measured values as given in US20240150466A1 (DYNAMICURE BIOTECHNOLOGY, published 2024).
Results are given in words; binding and its absence hold for the method and conditions named. Some binding calls cover weakened binding; strength is not graded here. For some of these results: Tags and fused reporters may be left off the sequences shown.

Experiments:
[1] = molecular target: T1, human IGFBP7 recombinant protein (human) (UniProt Q16270); experiment: ELISA
T1 sequence (chain, biotinylated with EZ-LINK NHS-PEG4 biotin in the BLI assays (sites not stated)): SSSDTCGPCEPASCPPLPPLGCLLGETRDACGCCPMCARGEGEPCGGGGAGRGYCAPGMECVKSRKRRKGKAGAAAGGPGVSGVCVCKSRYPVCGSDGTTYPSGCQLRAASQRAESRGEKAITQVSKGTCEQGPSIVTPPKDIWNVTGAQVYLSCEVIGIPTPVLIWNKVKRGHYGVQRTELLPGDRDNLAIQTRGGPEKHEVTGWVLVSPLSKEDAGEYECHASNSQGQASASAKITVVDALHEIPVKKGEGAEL

[2] = molecular target: T2, mouse IGFBP7 recombinant protein (mouse) (UniProt Q61581); experiment: ELISA
T2 sequence (biotinylated with EZ-LINK NHS-PEG4 biotin in the BLI assays (sites not stated), looked up): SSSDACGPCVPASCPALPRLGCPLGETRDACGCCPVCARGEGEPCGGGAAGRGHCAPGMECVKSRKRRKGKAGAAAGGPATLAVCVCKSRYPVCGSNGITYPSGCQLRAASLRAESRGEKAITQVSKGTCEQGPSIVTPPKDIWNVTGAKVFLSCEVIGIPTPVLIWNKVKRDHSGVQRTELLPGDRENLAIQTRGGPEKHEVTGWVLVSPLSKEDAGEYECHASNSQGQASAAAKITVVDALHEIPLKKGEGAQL

[3] = molecular target: T1, human IGFBP7 recombinant protein (human); experiment: Octet epitope binning, biotinylated human IGFBP7 on streptavidin tips, antibodies at 10 ug/mL (FIG. 18)
[4] = molecular target: T3, human IGFBP7 displayed on HEK293T cells (human, UniProt Q16270 27-282); experiment: flow cytometry on human IGFBP7 displaying HEK293T cells, nanobody 10 ug/ml, APC anti-HIS detection
T3 construct: domain: CD80 transmembrane domain; signal peptide stated as residues 1-26; also called hIGFBP7; hIGFBP7-HEK cells; not shown: linker; CD80 transmembrane domain
T3 sequence: T1 sequence (chain, biotinylated with EZ-LINK NHS-PEG4 biotin in the BLI assays (sites not stated))
Method: Human IGFBP7 and mouse IGFBP7 displaying HEK293T cells were detached by incubation with TrypLE reagents (Thermos Fisher), which preserves the integrity of IGFBP7 on the cell surface. Then the cells were incubated with anti-IGFBP7 nanobodies at 10 μg/ml for 30 minutes in 4° C. After washing by FACS buffer, the cells were incubated with APC conjugated anti-HIS antibodies (Biolegend) for 30 minutes in 4° C. After washing by FACS buffer twice, the samples were acquired in NovoCyte Flow Cytometer and analyzed by NovoExpress software.

[5] = molecular target: T4, mouse IGFBP7 displayed on cells (HEK293T or CHO-K1) (mouse) (UniProt Q61581); experiment: flow cytometry on mouse IGFBP7 displaying HEK293T cells, nanobody 10 ug/ml, APC anti-HIS detection
T4 sequence (looked up): T2 sequence (biotinylated with EZ-LINK NHS-PEG4 biotin in the BLI assays (sites not stated), looked up)

[6] = molecular target: T4, mouse IGFBP7 displayed on cells (HEK293T or CHO-K1) (mouse); experiment: FACS on mIGFBP7-expressing CHO-K1 cells (FIG. 5)
[7] = molecular target: T2, mouse IGFBP7 recombinant protein (mouse); experiment: BLI (Octet QKe), biotinylated IGFBP7 on streptavidin biosensors (FIG. 10)
[8] = molecular target: T1, human IGFBP7 recombinant protein (human); experiment: BLI (Octet QKe), biotinylated IGFBP7 on streptavidin biosensors (FIG. 9)
[9] = molecular target: T4, mouse IGFBP7 displayed on cells (HEK293T or CHO-K1) (mouse); experiment: flow cytometry on mIGFBP7-HEK cells (FIG. 13)
[10] = molecular target: T3, human IGFBP7 displayed on HEK293T cells; experiment: flow cytometry on hIGFBP7-HEK cells (FIG. 13)
Method: After washing with FACS buffer, the cells were incubated with Alexa Fluor 488 conjugated anti-mouse IgG antibody (Jackson ImmunoResearch) for 30 minutes in 4° C. After washing with FACS buffer twice, the samples were acquired in NovoCyte Flow Cytometer and analyzed by NovoExpress software.

Measured: binding

B1: anti-IGFBP7 nanobody A04 (VHH)
VHH: VQLQESGGGLVQPGGSLRLSCAASGTFTINTYLWYRQPPGKQREFVAAITRGGSINYADSVKGRFTISRDNAKKTVYLQMNSLKPEDTAVYVCNIKAHPNPWGFDNDYWGQGTQVTVSS
notes: Llama nanobody expressed in E. coli as His6-tagged protein; also called A4; A4 VHH; not shown: His6 tag
binds: [1] | [2] | [3] | [4] | [5]

B2: anti-IGFBP7 nanobody Fc-fusion construct derived from A4 (Fc isotype not told) (Fc fusion, not shown: a dimerising Fc or GST)
chain: B1 VHH
binds: [6]

B3: bispecific anti-IGFBP7 nanobody Fc-fusion construct A1D4-mIgG2a (bispecific antibody)
chain: VQLQESGGGLVQAGGSLRLSCAASGSLFAIDKWGWYRQVAGNERELVAWRYSPVSINYGDSVKGRFTVSGDSSRKRVYLQMNSLKPDDTAVYRCAAVISGAWYWGQGTQVTVSSVQLQESGGGLVQTGGSLRLSCAASGRSFTFSSYAMGWFRHAPGKEREFLTAITWSGDYTYYTDSVKGRSTISRDNAKNTVYLQLNNLKPEDTAVYYCAAKFSQVSAFFATVSEYEYWGQGTQVTVSS
binds: [7] | [8] | [9] | [10]
